Reference: patent publication US20180312473A1, “PHENAZINE DERIVATIVES AS ANTIMICROBIAL AGENTS” (priority 2015, published 2018)
Some entries share one result that the patent states for a list of compounds.

How the values were obtained:
[1] = system: Enterococcus faecium (ATCC 700221), VRE; assay: MIC assay (broth microdilution, CLSI); type: cell-based; details: Table 7; b lowest concentration tested
[2] = system: MRSA biofilms (MRSA-2, BAA-1707, BAA-44); assay: Calgary Biofilm Device assay, values summarised over MRSA strains

SMILES: Oc1ccc(Br)c2nc3cc(Cl)c(Cl)cc3nc12 [Compound 11]
- MIC, VRE 700221 [1]: 3.13 to 6.25 µM

SMILES: CN[C@H](CC(C)C)C(=O)N[C@H]1C(=O)N[C@@H](CC(N)=O)C(=O)N[C@H]2C(=O)N[C@H]3C(=O)N[C@H](C(=O)N[C@H](C(=O)O)c4cc(O)cc(O)c4-c4cc3ccc4O)[C@H](O)c3ccc(c(Cl)c3)Oc3cc2cc(c3O[C@@H]2O[C@H](CO)[C@@H](O)[C@H](O)[C@H]2O[C@H]2C[C@](C)(N)[C@H](O)[C@H](C)O2)Oc2ccc(cc2Cl)[C@H]1O [Vancomycin, vancomycin, reference compound]
- MBC (planktonic killing) against MRSA strains [2]: 3.0 to 125 µM
- MBEC against MRSA biofilms [2]: > 2,000 μM
